No constants are given. Whether binding was seen depends on the method and setting. Binding seen in cells or lysates may run through a third protein. Some binding calls cover weakened binding; strength is not graded here.
Target: FLAG-tagged wild-type TBEV NS5 (tick-borne encephalitis virus (strain of the cDNA not stated)) (UniProt Q01299)
Assay: co-IP

Sequences of proteins named here, by UniProt entry; tags and fusion partners are left off. Residues count along the entry.
UniProt Q01299, residues 2512-3414: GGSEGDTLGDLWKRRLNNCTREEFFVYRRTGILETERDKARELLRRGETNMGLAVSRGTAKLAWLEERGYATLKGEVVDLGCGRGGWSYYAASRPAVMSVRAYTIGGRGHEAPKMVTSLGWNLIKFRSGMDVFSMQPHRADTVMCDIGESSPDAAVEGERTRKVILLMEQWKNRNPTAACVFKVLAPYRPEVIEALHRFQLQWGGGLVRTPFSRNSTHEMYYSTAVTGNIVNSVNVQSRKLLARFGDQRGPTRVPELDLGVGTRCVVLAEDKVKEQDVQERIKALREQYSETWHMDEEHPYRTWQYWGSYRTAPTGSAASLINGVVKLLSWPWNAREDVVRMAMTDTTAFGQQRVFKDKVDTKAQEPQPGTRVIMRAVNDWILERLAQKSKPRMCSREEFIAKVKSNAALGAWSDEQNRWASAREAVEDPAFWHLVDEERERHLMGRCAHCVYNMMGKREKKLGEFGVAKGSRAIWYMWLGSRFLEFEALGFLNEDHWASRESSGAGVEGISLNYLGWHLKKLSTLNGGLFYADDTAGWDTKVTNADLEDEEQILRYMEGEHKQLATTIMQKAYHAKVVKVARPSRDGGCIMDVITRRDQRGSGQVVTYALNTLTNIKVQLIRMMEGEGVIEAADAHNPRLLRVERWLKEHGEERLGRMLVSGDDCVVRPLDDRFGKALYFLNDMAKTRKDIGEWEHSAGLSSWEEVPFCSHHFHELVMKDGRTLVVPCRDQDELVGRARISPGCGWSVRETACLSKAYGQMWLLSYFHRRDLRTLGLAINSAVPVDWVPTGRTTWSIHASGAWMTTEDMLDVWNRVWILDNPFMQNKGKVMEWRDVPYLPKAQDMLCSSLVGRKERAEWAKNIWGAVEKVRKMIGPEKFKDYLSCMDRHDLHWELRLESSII
UniProt Q16637: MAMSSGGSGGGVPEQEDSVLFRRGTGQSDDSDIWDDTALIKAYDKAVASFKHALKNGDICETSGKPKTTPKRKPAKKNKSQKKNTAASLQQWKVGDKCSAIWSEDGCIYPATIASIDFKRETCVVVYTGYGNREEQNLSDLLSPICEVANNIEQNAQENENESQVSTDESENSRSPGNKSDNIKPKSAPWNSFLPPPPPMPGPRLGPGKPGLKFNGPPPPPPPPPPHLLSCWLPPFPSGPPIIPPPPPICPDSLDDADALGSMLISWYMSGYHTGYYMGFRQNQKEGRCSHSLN
UniProt P29597: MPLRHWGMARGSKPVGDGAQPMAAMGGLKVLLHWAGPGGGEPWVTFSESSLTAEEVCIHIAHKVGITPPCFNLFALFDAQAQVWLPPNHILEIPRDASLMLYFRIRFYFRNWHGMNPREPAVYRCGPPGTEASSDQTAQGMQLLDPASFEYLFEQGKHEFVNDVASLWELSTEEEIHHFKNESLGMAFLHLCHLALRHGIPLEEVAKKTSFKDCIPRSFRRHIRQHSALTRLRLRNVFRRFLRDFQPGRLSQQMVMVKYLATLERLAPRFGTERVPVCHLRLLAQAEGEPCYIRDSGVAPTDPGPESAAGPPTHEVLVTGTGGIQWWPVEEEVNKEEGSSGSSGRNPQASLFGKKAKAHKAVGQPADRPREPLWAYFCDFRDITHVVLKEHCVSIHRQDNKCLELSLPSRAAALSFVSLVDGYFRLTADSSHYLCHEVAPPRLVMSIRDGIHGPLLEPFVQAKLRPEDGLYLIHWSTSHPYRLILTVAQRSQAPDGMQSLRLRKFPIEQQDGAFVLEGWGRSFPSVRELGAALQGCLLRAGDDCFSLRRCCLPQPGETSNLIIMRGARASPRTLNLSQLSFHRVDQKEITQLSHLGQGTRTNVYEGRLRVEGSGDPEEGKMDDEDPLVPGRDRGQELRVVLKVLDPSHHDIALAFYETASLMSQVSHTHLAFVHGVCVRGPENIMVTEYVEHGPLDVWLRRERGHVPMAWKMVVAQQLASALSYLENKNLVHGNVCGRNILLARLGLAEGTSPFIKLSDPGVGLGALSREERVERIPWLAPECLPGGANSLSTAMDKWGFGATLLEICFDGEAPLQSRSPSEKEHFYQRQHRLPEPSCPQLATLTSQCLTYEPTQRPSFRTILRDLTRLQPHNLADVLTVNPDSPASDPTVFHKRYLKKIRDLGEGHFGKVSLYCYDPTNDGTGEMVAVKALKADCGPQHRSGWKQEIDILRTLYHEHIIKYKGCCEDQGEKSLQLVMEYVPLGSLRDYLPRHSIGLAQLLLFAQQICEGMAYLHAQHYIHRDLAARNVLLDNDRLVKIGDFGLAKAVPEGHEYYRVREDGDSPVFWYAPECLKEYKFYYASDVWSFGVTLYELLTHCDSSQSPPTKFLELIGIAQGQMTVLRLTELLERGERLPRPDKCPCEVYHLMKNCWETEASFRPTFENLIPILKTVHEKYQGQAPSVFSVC

Substance	binding
SMN1 (from UniProt Q16637 1-294)	binds
TYK2 (from UniProt P29597 1-1187)	binds

Reference: PMC13595970
